# Some of the results follow. This data set is noisy: repeats of one test often differ as much as different tests do.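 The cells were human embryonic kidney cells carrying a Renilla luciferase gene, driven by the HSV-TK promoter, on a plasmid put in briefly by transfection. This is the first-round screen of about ten thousand compounds, looking for ones that raise reporter output.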
# System: HEK 293FT
# Assay: log relative Renilla luciferase luminescence (reporter expression vs reference, reference not stated) (log (base not stated)); higher = higher recombinant reporter expression
# Conditions: 10 µM; time after transfection 48 h
# Experimental: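 HEK 293FT cells transiently transfected with pRL-TK (Renilla luciferase) were treated with compounds at 10 uM and luminescence was read about 42 h later. Values are log relative Renilla luminescence (log base and reference not stated). Single-pass screen; 2080 natural products library.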
row,Structure (SMILES),log
1,C=C(C(=O)O)[C@@H]1CC[C@@]2(C)CCCC(C)=C2C1 [Isocostic acid],-0.0495
2,C=C1CC[C@@H]2[C@H]([C@H]3[C@H]1CC[C@]3(C)O)C2(C)C [Spathulenol],0.0352
3,C/C(=C\CO)CC/C=C(\C)C(=O)O [Foliamenthoic acid],-0.0147
4,COc1cc2oc(=O)ccc2cc1[C@@H]1OC(=O)[C@@]2(C)O[C@@H]12 [Micromelin],0.0396
5,CC(C)=CCc1cc2ccc(O)cc2oc1=O [7-Hydroxy-3-prenylcoumarin],-0.119
6,"C=C(CCC(O)C(C)(C)O)C1CCC2(C)C1CCC1C3(C)CCC(O)C(C)(C)C3CCC12C (centres undefined) [Dammar-20(21)-en-3,24,25-triol]",-0.00908
7,C[C@@H]1O[C@@H](Oc2c(-c3ccc(O)cc3)oc3cc(O)cc(O)c3c2=O)[C@H](O)[C@H](O)[C@H]1O [Afzelin],0.0322
8,COC(=O)C1=CO[C@@H](C)[C@H]2Cn3ccc4c5ccccc5nc-4c3C[C@H]12 [Serpentine],0.154
9,COC(=O)c1c[nH]c2ccccc12 [Methyl 3-indolecarboxylate],0.00611
10,CC1(C)CC[C@]2(C(=O)O)CC[C@]3(C)C(=CC[C@@H]4[C@@]5(C)CC[C@H](O)[C@@](C)(CO)[C@@H]5[C@H](O)C[C@]43C)[C@@H]2C1 [Uncargenin C],-0.115
11,COc1ccc2c3c4n(c2c1)CC(C)(C)C4=NCC3 [Harmalidine],-0.0437
12,COc1cc([C@@H]2OC[C@@H]3[C@H]2CO[C@H]3c2cc(OC)c(O[C@@H]3O[C@H](CO)[C@@H](O)[C@H](O)[C@H]3O)c(OC)c2)cc(OC)c1O [Acanthoside B],-0.321
13,COc1ccc2ccc(=O)oc2c1C(C=O)=C(C)C [Murralongin],-0.262
14,COc1cc2oc(=O)ccc2cc1[C@H]1O[C@@H](O)[C@]2(C)O[C@H]12 [Dihydromicromelin B],-0.466
15,O=C1C[C@@H](O)[C@]2(O)CCO[C@@H]2C1 [Cleroindicin D],-0.083
16,COc1ccc(CCO[C@@H]2O[C@H](COC(C)=O)[C@@H](OC(=O)/C=C/c3ccc(OC(C)=O)c(OC(C)=O)c3)[C@H](O[C@@H]3O[C@@H](C)[C@H](OC(C)=O)[C@@H](OC(C)=O)[C@H]3OC(C)=O)[C@H]2OC(C)=O)cc1OC [Brachynoside heptaacetate],0.0724
17,C=C1[C@@H]2CC[C@H]3[C@@]45CO[C@](O)([C@@H](O)[C@@H]4C(C)(C)C=CC5=O)[C@]3(C2)[C@@H]1OC(C)=O [Maoecrystal B],-0.121
18,COc1cc([C@@H]2OC[C@@H]3[C@H]2CO[C@H]3c2ccc(O)c(OC)c2)ccc1O [(+)-Pinoresinol],-0.2
19,C=Cc1ncc(OC)c2c1[nH]c1ccccc12 [Dehydrocrenatine],0.335
20,CC(=O)O[C@H]1C(=O)[C@@]2(CO)[C@H]([C@H](OC(=O)c3ccccc3)[C@]3(O)C[C@H](O)C(C)=C1C3(C)C)[C@]1(OC(C)=O)CO[C@@H]1C[C@@H]2O [19-Hydroxybaccatin III],-0.0147

# Among those listed so far, 3 contain a COOH group.
row,Structure (SMILES),log
1,C=C(C(=O)O)[C@@H]1CC[C@@]2(C)CCCC(C)=C2C1 [Isocostic acid],-0.0495
3,C/C(=C\CO)CC/C=C(\C)C(=O)O [Foliamenthoic acid],-0.0147
10,CC1(C)CC[C@]2(C(=O)O)CC[C@]3(C)C(=CC[C@@H]4[C@@]5(C)CC[C@H](O)[C@@](C)(CO)[C@@H]5[C@H](O)C[C@]43C)[C@@H]2C1 [Uncargenin C],-0.115

# Carrying on:

row,Structure (SMILES),log
1,CC(C)c1cc2c(c(O)c1O)[C@@]13CCCC(C)(C)[C@@H]1[C@@H](O)[C@@H]2O[C@@H]3O [6-Epidemethylesquirolin D],-0.299
2,"COc1cc(OC)c(O[C@@H]2O[C@H](CO)[C@@H](O)[C@H](O)[C@H]2O)c(OC)c1 [2,4,6-Trimethoxyphenol 1-O-beta-D-glucopyranoside]",-0.642
3,COc1cc2cc(CC=C(C)C)c(=O)oc2cc1O [7-Hydroxy-6-methoxy-3-prenylcoumarin],0.0016
4,CCCCCCCc1cc(=O)c2ccccc2n1C [1-Methyl-2-heptyl-4(1H)-quinolinone],-0.028
5,COc1c2ccoc2nc2c(OC)cccc12 [gamma-Fagarine],-0.518
6,CC1(C)[C@H](O)CC[C@]2(C)[C@H]3CC[C@@H]4[C@@H]([C@]5(C)CCC(=O)O5)CC[C@@]4(C)[C@]3(C)CC[C@@H]12 [Cabraleahydroxylactone],-0.157
7,"Cc1c(C(=O)O)c(=O)c2ccccc2n1C [1,4-Dihydro-1,2-dimethyl-4-oxo-3-quinolinecarboxylic acid]",-0.172
8,C=C(C(=O)O)[C@H]1C=C2[C@@H](C)CCC[C@]2(C)CC1 [Pterodontic acid],-0.602
9,C/C=C(/C)C(=O)O[C@H]1c2cc3c(c(OC)c2-c2c(cc(OC)c(OC)c2OC)C[C@H](C)[C@@H]1C)OCO3 [Angeloylisogomisin O],-0.0197
10,C=C1[C@H]2CC[C@]3([C@@H](C2)[C@]24CCC[C@]5(C)[C@H]2C[C@H]3O[C@H]4N2CCO[C@@H]25)[C@H]1OC(C)=O [Spiramine A],0.035
11,COc1ccc([C@@H]2CC(=O)c3c(O)cc(O[C@@H]4O[C@H](CO[C@@H]5O[C@@H](C)[C@H](O)[C@@H](O)[C@H]5O)[C@@H](O)[C@H](O)[C@H]4O)cc3O2)cc1O [Hesperidin],-0.15
12,COc1cc(O)c2c(=O)cc(-c3ccccc3)oc2c1 [Tectochrysin],0.153
13,CC(=O)OC[C@@]12[C@H]([C@H](OC(=O)c3ccccc3)[C@]3(C(C)(C)O)C[C@H](O)C(C)=C3[C@@H](O)[C@@H]1O)[C@]1(OC(C)=O)CO[C@@H]1C[C@@H]2O [13-O-Deacetyltaxumairol Z],0.0981
14,CC(=O)OC[C@H]1O[C@@H](Oc2c(-c3ccc(O)cc3)oc3cc(O[C@@H]4O[C@@H](C)[C@H](O)[C@@H](O)[C@H]4O)cc(O)c3c2=O)[C@H](O)[C@@H](O)[C@@H]1O [Kaempferol 3-O-(6''-O-acetyl)glucoside-7-O-rhamnoside],-0.0495
15,COC(=O)C1=CO[C@@H](O[C@@H]2O[C@H](CO)[C@@H](O)[C@H](O)[C@H]2O)[C@@H]2[C@@H](C)[C@@H](O)C[C@H]12 [Loganin],-0.318
16,CC(C)(O)[C@H]1CC[C@@](C)([C@H]2CC[C@]3(C)[C@@H]2CC[C@@H]2[C@@]4(C)CCC(=O)C(C)(C)[C@@H]4CC[C@]23C)O1 [Ocotillone],-0.212
17,O=C(O)C[C@H]1CCC(=O)[C@@H]1C/C=C\CCO [12-Hydroxyjasmonic acid],0.11
18,CCCCCCCCC/C=C/CCC[C@@H](O)[C@@H](O)[C@H](CO[C@@H]1O[C@H](CO)[C@@H](O)[C@H](O)[C@H]1O)NC(=O)[C@H](O)CCCCCCCCCCCCCCCCCCCCCC [Momor-cerebroside I],-0.108
19,"CC1(C)C(=O)CC[C@]2(C)[C@@H]1CC[C@@]13C[C@@H](CC[C@H]12)[C@@H](CO)C3 (single isomer, unassigned; ent-17) [ent-17-Hydroxykauran-3-one]",-0.594

# From the supplement of paper PMC7024190
